# Measurements: PubChem BioAssay AID504847 (National Center for Advancing Translational Sciences (NCATS), 2011)
# Amino acid sequences for entries named in this document (tags omitted). A change or cut given only in a name is not applied to a line headed by its entry.
# UniProt P11473: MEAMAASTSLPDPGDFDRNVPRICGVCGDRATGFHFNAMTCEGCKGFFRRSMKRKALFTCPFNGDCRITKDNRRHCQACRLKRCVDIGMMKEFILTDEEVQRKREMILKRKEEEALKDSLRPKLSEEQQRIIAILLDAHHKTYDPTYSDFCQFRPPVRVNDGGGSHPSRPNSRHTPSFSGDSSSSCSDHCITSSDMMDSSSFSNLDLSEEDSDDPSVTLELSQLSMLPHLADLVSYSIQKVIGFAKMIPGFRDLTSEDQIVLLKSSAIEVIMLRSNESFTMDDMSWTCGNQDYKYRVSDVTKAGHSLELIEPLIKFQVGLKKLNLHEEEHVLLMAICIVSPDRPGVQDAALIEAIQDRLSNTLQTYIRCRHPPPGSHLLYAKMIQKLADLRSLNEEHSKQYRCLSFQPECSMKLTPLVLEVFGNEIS
# Where “and” joins values, the source holds several entries; their conditions need not be identical. Equal values may be shown once. Out of some 400,000 compounds screened, about 3,700 (0.93%) were called active. Inconclusive means that the source gave no clear call. Such entries were picked first, then a sample of the others. Calls follow the shape of the dose curve; as a rule, active = well fitted inhibition curve with a large enough effect; inconclusive = small, poorly fitted or top-dose-only effect, or another doubt; inactive = no such curve, though single readings can be large or run the other way. Potencies of inconclusive entries are doubtful fits and often do not repeat.
# Target: Vitamin D3 receptor (Homo sapiens) (UniProt P11473)
# Experiment: Inhibitors of the vitamin D receptor (VDR): qHTS
# Details: VDR-SRC2-3 peptide fluorescence polarization, 2 h; max response, negative = inhibition: stronger effect = lower value
# In short: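 Compounds are added to VDR with labelled SRC2-3 coactivator peptide and held 2 h at room temperature. Inhibition of the VDR–peptide interaction is then read as a change in fluorescence polarization.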
# % is scaled to controls: 0 for no effect and ±100 for the full control effect; potency is read from the fitted curve at half-maximal effect.
SMILES,"max response, negative = inhibition",Potency
COC(=O)C(=Nc1ccccc1)/C(C(=O)C(=O)N(C)c1ccccc1)=C(\O)c1ccccc1,inactive: 7.13%,–
C=CCOC(=O)C1=C(C)NC2(O)c3ccccc3C(=O)C12O (stereo unspecified),–,"inconclusive: 39.8 µM [inhibitor, partial curve, poor fit]"
O=C(CCN1CCc2ccccc2C1)c1ccc2c(c1)OCCO2,–,"inconclusive: 79.4 µM [inhibitor, partial curve, poor fit]"
Cc1ccc(NC(=O)COc2ccc(-c3nnco3)cc2)cc1S(=O)(=O)N1CCOCC1,–,"inconclusive: 89.1 µM [inhibitor, single point]"
COc1ccc2nc(Nc3sc4c(c3C(N)=O)CCCC4)sc2c1,–,"inconclusive: 56.2 µM [inhibitor, partial curve, poor fit]"
COc1cc([C@@H]2[C@H]3CN(C)CC=C3C(C#N)=C(N)C2(C#N)C#N)cc2c1OCO2,–,"inconclusive: 50.1 µM [inhibitor, partial curve]"
Cc1c(Cc2ccccc2)c(=O)oc2c(C)c(OCC(=O)N[C@@H](Cc3ccccc3)C(=O)O)ccc12,–,"inconclusive: 63.1 µM [inhibitor, partial curve, poor fit]"
Cc1cc(C)cc(C(=O)NCc2ccc3c(c2)OCO3)c1,–,"inconclusive: 89.1 µM [inhibitor, partial curve]"
O=C(Nc1ccccc1)C1CCN(C(=O)c2ccccc2)CC1,–,"inconclusive: 79.4 µM [inhibitor, partial curve]"
COc1ccc(C(=O)Nc2nc3n(n2)C(c2ccc(Cl)cc2)C=C(c2ccccc2)N3)cc1OC (stereo unspecified),inactive: -18%,–
CN(C)c1ccc(P(=O)(Nc2ccc([N+](=O)[O-])cc2)N2CCOCC2)c(NC(=O)c2cccs2)c1 (stereo unspecified),inactive: -13.7%,–
CO[C@H]1C([C@@]2(C)O[C@@H]2CC=C(C)C)[C@]2(CC[C@H]1OC(=O)/C=C/C=C/C=C/C=C/C(=O)O)CO2 (stereo partly specified),–,active: 35.5 µM
Cc1cc(C)cc(N(C(=O)CNC(=O)c2ccco2)C(C(=O)NC2CCCC2)c2ccncc2)c1 (stereo unspecified),–,"inconclusive: 56.2 µM [inhibitor, partial curve, poor fit]"
COc1ccc(-c2csc(Nc3ccccc3)[n+]2Cc2ccccc2)cc1,–,"inconclusive: 56.2 µM [inhibitor, partial curve, poor fit]"
O=C1C2CC=CCC2C(=O)N1CC1CCCO1 (stereo unspecified),–,"inconclusive: 28.2 µM [inhibitor, single point]"
Cc1c(C(=O)Oc2cccc3cccnc23)oc2ccccc12,–,"inconclusive: 56.2 µM [inhibitor, single point]"
CC(=O)c1ccc(NC2=C(N3CCOCC3)C(=O)c3ccccc3C2=O)cc1,–,"inconclusive: 89.1 µM [inhibitor, single point]"
O=C(OCc1cc(=O)n2nc(-c3cccs3)sc2n1)c1ccc(F)cc1,inactive: -9.6%,–
Cc1ccc(N2C(=O)CS(=O)C(c3ccccc3)C2=O)cc1C (stereo unspecified),–,"inconclusive: 50.1 µM [inhibitor, partial curve, poor fit]"
COc1ncc2nc(-c3ccc(F)cc3)c(=O)n(Cc3cccs3)c2n1,inactive: -1.22%,–
O=C(Nc1nc(-c2ccccn2)cs1)c1cc(Cl)ccc1[N+](=O)[O-],–,active: 79.4 µM
CC1=C(C(=O)OCc2ccccc2)C(c2ccc(C(F)(F)F)cc2)NC(=O)N1CCCCCC(=O)O (stereo unspecified),–,"inconclusive: 70.8 µM [inhibitor, partial curve, poor fit]"

SMILES,"max response, negative = inhibition",Potency
CCOCc1nnc(NC(=O)c2cc(Cl)ccc2OC)s1,inactive: 1.82%,–
CCOc1ccc2c(c1)[nH]c(=S)n2C,–,"inconclusive: 89.1 µM [inhibitor, single point]"
Fc1ccc(C2CC(c3cccs3)=NN2C(=S)Nc2ccccc2)cc1 (stereo unspecified),–,"inconclusive: 89.1 µM [inhibitor, single point]"
COC(=O)c1nc(NC(=O)c2cc(OC)c(OC)c(OC)c2)n[nH]1,–,"inconclusive: 50.1 µM [inhibitor, partial curve, poor fit]"
Cc1cc(Cl)ccc1C(=O)C1CCCN(C(=O)c2cccc(N3CCCC3=O)c2)C1 (stereo unspecified),–,"inconclusive: 28.2 µM [inhibitor, partial curve, poor fit]"
Cc1ccc(NC(=O)CSCC(=O)NNC(=O)c2nn(C)c(=O)c3ccccc23)cc1,–,"inconclusive: 50.1 µM [inhibitor, partial curve]"
COc1ccc(NN=Nc2nc3c([nH]2)c(=O)n(C)c(=O)n3C)cc1,–,"inconclusive: 44.7 µM [inhibitor, partial curve, poor fit]"
COc1cc(/C=C(\C#N)C(=O)Nc2nnc(C(F)(F)F)s2)ccc1OCc1ccc(C(F)(F)F)cc1C(F)(F)F,–,"inconclusive: 3.55 µM [inhibitor, full curve] and inconclusive: 50.1 µM [inhibitor, partial curve]"
CCOC(=O)CCS(=O)(=O)c1nc(-c2ccccc2)cc(C(F)(F)F)n1,–,active: 44.7 µM
OCCNc1cnc2ccccc2n1,–,"inconclusive: 39.8 µM [inhibitor, single point]"
OCCC1CN(Cc2cc3ccccc3o2)CCN1Cc1ccc(F)cc1 (stereo unspecified),–,"inconclusive: 0.631 µM [inhibitor, full curve, poor fit]"
CCOc1ccc(NS(=O)(=O)c2ccc3nc(-c4ccccc4)[nH]c3c2)cc1,inactive: -3.9%,–
COCCCN=C(c1ccco1)n1c(=S)nc(-c2ccco2)n(CCCOC)c1=S,–,"inconclusive: 22.4 µM [inhibitor, full curve]"
Cc1ccc(C)c(N2CCN(C(=O)CN(C)S(=O)(=O)c3ccc4c(c3)CCC(=O)N4)CC2)c1,–,"inconclusive: 89.1 µM [inhibitor, partial curve, poor fit]"
O=C(O)CCCN1C(=O)/C(=C/c2ccc(-c3nc4ccccc4s3)o2)SC1=S,inactive: -11.4%,–
CCOc1ccc(NC(=O)CC2C(=O)N(CC)C(=S)N2CCN2CCOCC2)cc1 (stereo unspecified),inactive: -23.7%,–
CC(Oc1cccc(Cl)c1)C(=O)NCc1ccc(S(N)(=O)=O)cc1 (stereo unspecified),–,"inconclusive: 39.8 µM [inhibitor, single point]"
Cn1ccnc1Sc1cc(Cl)ccc1[N+](=O)[O-],inactive: 0.899%,–
O=C(NCCS(=O)(=O)c1ccc(Cl)cc1)c1ccc(F)cc1,–,"inconclusive: 89.1 µM [inhibitor, single point]"
Cc1ccc(S(=O)(=O)N2C(=O)C(c3ccccc3)SC2=Nc2ccccc2)cc1 (stereo unspecified),–,"inconclusive: 56.2 µM [inhibitor, partial curve, poor fit]"
Cc1cccc(/N=C/c2sc3ccccc3c2O)n1,–,"inconclusive: 89.1 µM [inhibitor, single point]"
Cc1nn(C)c(C)c1NC(=O)CSc1nc(C2CC2)nc2c1cnn2-c1ccccc1,inactive: 16.1%,–

# Record cards, from the list above. Order of values: max response, negative = inhibition	Potency
# COc1ccc(NN=Nc2nc3c([nH]2)c(=O)n(C)c(=O)n3C)cc1 is entered as –	inconclusive: 44.7 µM [inhibitor, partial curve, poor fit]
# Cn1ccnc1Sc1cc(Cl)ccc1[N+](=O)[O-] is entered as inactive: 0.899%	–
# CCOC(=O)CCS(=O)(=O)c1nc(-c2ccccc2)cc(C(F)(F)F)n1 is entered as –	active: 44.7 µM
# CC(Oc1cccc(Cl)c1)C(=O)NCc1ccc(S(N)(=O)=O)cc1 (stereo unspecified) is entered as –	inconclusive: 39.8 µM [inhibitor, single point]

# (further entries)

SMILES,"max response, negative = inhibition",Potency
Cc1ccc(-c2csc(NC(=O)c3cccc(N4C(=O)CCC4=O)c3)n2)o1,–,"inconclusive: 89.1 µM [inhibitor, single point]"
CCOc1ccc(C(=O)NC(C(=O)NCCc2ccc(S(N)(=O)=O)cc2)C(C)C)cc1 (stereo unspecified),–,"inconclusive: 50.1 µM [inhibitor, partial curve, poor fit]"
Cc1ccc(C(=O)Nc2cc(Cl)ccc2Oc2ccccc2)cc1[N+](=O)[O-],inactive: -0.783%,–
Cn1cccc1/C=N/NC(=O)c1cccc(OC(F)(F)C(F)F)c1,–,"inconclusive: 89.1 µM [inhibitor, single point]"
COc1ccc(Br)cc1C1NC(c2ccc3c(c2)OCO3)=CC(c2cc(Cl)ccc2O)N1 (stereo unspecified),–,active: 50.1 µM
COC(=O)c1ccc(/C=C2\CCn3c2nc2cc(C(=O)O)ccc2c3=O)cc1,–,"inconclusive: 79.4 µM [inhibitor, partial curve, poor fit]"
Cc1cccc(C)c1OCc1n[nH]c(=S)o1,inactive: 8.91%,–
O=C(CNC(=O)c1ccc(Br)o1)NNC(=O)c1ccc(Cl)cc1,–,"inconclusive: 89.1 µM [inhibitor, single point]"
O=C1C(Cl)=C(N2CCOCC2)C(=O)N1c1cccc(C(F)(F)F)c1,–,active: 35.5 µM
Cc1cc(Cl)n2c(nc3ccccc32)c1C#N,–,active: 39.8 µM
CN(C)C(=S)N=c1ssc(=S)n1Cc1cccnc1,–,active: 50.1 µM
Cc1noc(C)c1C(=O)NNc1cc(Cl)ccc1Cl,inactive: -11%,–
c1cc2c(cc1-c1[nH]ncc1CN1CC3C[C@@H]4CC1C[C@H](C3)C4)OCO2,inactive: 0.12%,–
Cc1ccccc1CN1CCN(CC(=O)NCc2ccccc2Cl)C1=O,inactive: 4.85%,–
Clc1ccccc1-c1nc(NCc2cccnc2)c2ccccc2n1,–,"inconclusive: 50.1 µM [inhibitor, partial curve]"
O=C(O)CSc1c(-c2cccs2)[nH]c2ccccc12,–,"inconclusive: 28.2 µM [inhibitor, partial curve, poor fit]"
CN1CCN(c2ncnc3ccc(-c4ccccc4Cl)cc23)CC1,–,"inconclusive: 44.7 µM [inhibitor, partial curve]"
CCOC(=O)CSc1nc2ccc(NC(=O)c3ccccc3)cc2s1,inactive: 9.63%,–
Cn1ccnc1-c1nc2ccccc2[nH]c1=O,inactive: -9.67%,–
C=CCn1c(SCc2nc3ccccc3c(=O)[nH]2)nc2ccccc2c1=O,inactive: 0.758%,–
N#Cc1cccc(NC(=O)Cn2cnc(S(=O)(=O)N3CCOCC3)c2)c1,–,"inconclusive: 39.8 µM [inhibitor, single point]"
CCOc1ccc(NC(C)C(=O)N/N=C/c2cccs2)cc1 (stereo unspecified),inactive: 2.46%,–
